PubChem BioAssay AID1259308 – NCATS – 2017
Screen: 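Genes whose loss raises luciferase production in HEK293 cells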 (primary screen). Cells: human HEK293 embryonic kidney cells stably expressing firefly luciferase (HEK-CMV-Luc2-Hygro). Knock-down reagent: single siRNA against human genes, 0.8 pmol siRNA per well. Time to read-out: 72 h. Measured: 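Reporter luminescence and viable-cell signal on separate replicate plates, given as percent of non-targeting control and median/MAD z-scores, plus per-cell luciferase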. Scale: total luciferase, z-score and total luciferase, % of control: higher = more reporter protein produced; luciferase per cell, z-score: higher = more reporter output per viable cell; viable cells, % of control: higher = more viable cells. Rule for the call: 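An siRNA counts as active if its total luciferase robust z-score exceeds 3; genes with two or more such siRNAs out of three were retested with fresh siRNAs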. Calls: active = raised luciferase; inactive = no rise.
This is an unselected part of about 59,000 reagents tested. About 1,510 of them (2.6%) count as active. 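Calls use total luciferase alone and ignore viability, so some active siRNAs may act by altering cell number.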 The numbers tell different reagents against one gene apart.

| Gene | reagent | total luciferase, z-score | total luciferase, % of control | luciferase per cell, z-score | viable cells, % of control | outcome |
| --- | --- | --- | --- | --- | --- | --- |
| SEC14L2 (GeneID 23541) | 1 | 0.439 | 90.6 | 0.464 | 89.6 | inactive |
| SEC14L2 (GeneID 23541) | 2 | 1.91 | 120 | 0.998 | 103 | inactive |
| SEC14L2 (GeneID 23541) | 3 | -0.537 | 71.2 | -0.841 | 99.3 | inactive |
| ZNF16 (GeneID 7564) | 1 | -0.0464 | 81 | -0.0707 | 92.2 | inactive |
| ZNF16 (GeneID 7564) | 2 | 1.09 | 104 | 0.247 | 108 | inactive |
| ZNF16 (GeneID 7564) | 3 | -0.345 | 75 | 0.0264 | 83.3 | inactive |
| ARHGDIA (GeneID 396) | 1 | 1.08 | 103 | 0.17 | 110 | inactive |
| ARHGDIA (GeneID 396) | 2 | 1.54 | 113 | 1.3 | 89.3 | inactive |
| ARHGDIA (GeneID 396) | 3 | 0.0378 | 82.6 | 0.0931 | 90.1 | inactive |
| C1RL (GeneID 51279) | 1 | 0.0144 | 82.2 | -0.452 | 103 | inactive |
| C1RL (GeneID 51279) | 2 | -1.55 | 51 | -1.2 | 78.1 | inactive |
| C1RL (GeneID 51279) | 3 | 1.61 | 114 | 1.8 | 79.2 | inactive |
| MSR1 (GeneID 4481) | 1 | 0.656 | 94.9 | 0.973 | 82.1 | inactive |
| MSR1 (GeneID 4481) | 2 | 1.93 | 120 | 0.608 | 114 | inactive |
| MSR1 (GeneID 4481) | 3 | 1.41 | 110 | 0.925 | 96.2 | inactive |
| EPRS1 (GeneID 2058) | 1 | 0.595 | 93.7 | 0.729 | 86.4 | inactive |
| EPRS1 (GeneID 2058) | 2 | -1.33 | 55.4 | -2.37 | 116 | inactive |
| EPRS1 (GeneID 2058) | 3 | 0.798 | 97.8 | 1 | 83.9 | inactive |
| SCX (GeneID 642658) | 1 | 3.01 | 142 | 2.01 | 93.3 | active |
| SCX (GeneID 642658) | 2 | -0.207 | 77.8 | 0.252 | 81.3 | inactive |
| SCX (GeneID 642658) | 3 | 0.882 | 99.4 | 0.621 | 94.3 | inactive |
| PCDHA5 (GeneID 56143) | 1 | 0.606 | 93.9 | 1.1 | 78.5 | inactive |
| PCDHA5 (GeneID 56143) | 2 | 0.00959 | 82.1 | 0.0651 | 90.2 | inactive |
| PCDHA5 (GeneID 56143) | 3 | -0.832 | 65.3 | -1.24 | 101 | inactive |
| UVSSA (GeneID 57654) | 1 | -1.14 | 59.1 | -0.556 | 76.5 | inactive |
| UVSSA (GeneID 57654) | 2 | 0.493 | 91.7 | 1.06 | 77.5 | inactive |
| UVSSA (GeneID 57654) | 3 | -0.568 | 70.6 | -0.385 | 87.3 | inactive |
| FAM222A (GeneID 84915) | 1 | -1.97 | 42.8 | -1.28 | 66.9 | inactive |
| FAM222A (GeneID 84915) | 2 | 1.3 | 108 | 1.05 | 91.3 | inactive |
| FAM222A (GeneID 84915) | 3 | 1.35 | 109 | 0.582 | 104 | inactive |
| LAMC3 (GeneID 10319) | 1 | 1.86 | 119 | 0.835 | 107 | inactive |
| LAMC3 (GeneID 10319) | 2 | -1.17 | 58.6 | -0.541 | 75.5 | inactive |
| LAMC3 (GeneID 10319) | 3 | 1.63 | 114 | 1.34 | 89.9 | inactive |

Reformatted: results already given
Gene	reagent	total luciferase, z-score	total luciferase, % of control	luciferase per cell, z-score	viable cells, % of control	outcome
MSR1 (GeneID 4481)	2	1.93	120	0.608	114	inactive
MSR1 (GeneID 4481)	3	1.41	110	0.925	96.2	inactive
EPRS1 (GeneID 2058)	1	0.595	93.7	0.729	86.4	inactive
EPRS1 (GeneID 2058)	2	-1.33	55.4	-2.37	116	inactive
EPRS1 (GeneID 2058)	3	0.798	97.8	1	83.9	inactive
SCX (GeneID 642658)	1	3.01	142	2.01	93.3	active

The results go on.
| Gene | reagent | total luciferase, z-score | total luciferase, % of control | luciferase per cell, z-score | viable cells, % of control | outcome |
| --- | --- | --- | --- | --- | --- | --- |
| VPS72 (GeneID 6944) | 1 | -0.448 | 73 | -0.78 | 100 | inactive |
| VPS72 (GeneID 6944) | 2 | -1.43 | 53.5 | -0.87 | 75.2 | inactive |
| VPS72 (GeneID 6944) | 3 | 0.315 | 88.1 | 0.44 | 87.7 | inactive |
| ADNP (GeneID 23394) | 1 | 0.743 | 96.7 | 0.908 | 85.1 | inactive |
| ADNP (GeneID 23394) | 2 | 0.501 | 91.8 | 0.357 | 93.4 | inactive |
| ADNP (GeneID 23394) | 3 | -0.577 | 70.4 | -0.832 | 98 | inactive |
| NEDD4L (GeneID 23327) | 1 | 0.59 | 93.6 | 0.467 | 92.5 | inactive |
| NEDD4L (GeneID 23327) | 2 | 0.109 | 84 | -0.291 | 101 | inactive |
| NEDD4L (GeneID 23327) | 3 | -0.116 | 79.6 | -1.03 | 117 | inactive |
| USF3 (GeneID 205717) | 1 | -0.685 | 68.3 | -0.356 | 83.8 | inactive |
| USF3 (GeneID 205717) | 2 | 1.45 | 111 | 1.24 | 89.2 | inactive |
| USF3 (GeneID 205717) | 3 | -0.76 | 66.8 | -1.09 | 99.4 | inactive |
| P2RY10 (GeneID 27334) | 1 | 0.111 | 84.1 | 1.43 | 64.5 | inactive |
| P2RY10 (GeneID 27334) | 2 | -0.206 | 77.8 | -0.531 | 100 | inactive |
| P2RY10 (GeneID 27334) | 3 | -0.241 | 77.1 | -0.379 | 95.2 | inactive |
| ZNF326 (GeneID 284695) | 1 | -0.174 | 78.4 | 0.457 | 77.7 | inactive |
| ZNF326 (GeneID 284695) | 2 | 0.00997 | 82.1 | 0.474 | 81 | inactive |
| ZNF326 (GeneID 284695) | 3 | -0.686 | 68.2 | -0.365 | 84 | inactive |
| SLC7A6 (GeneID 9057) | 1 | -0.295 | 76 | -1.03 | 111 | inactive |
| SLC7A6 (GeneID 9057) | 2 | 0.456 | 91 | 0.278 | 94.5 | inactive |
| SLC7A6 (GeneID 9057) | 3 | -0.313 | 75.7 | -1.28 | 119 | inactive |
| MIA3 (GeneID 375056) | 1 | 1.2 | 106 | 1.35 | 82.8 | inactive |
| MIA3 (GeneID 375056) | 2 | 0.0641 | 83.2 | -0.0367 | 93.8 | inactive |
| MIA3 (GeneID 375056) | 3 | 0.0906 | 83.7 | -0.315 | 102 | inactive |
